{"source": "patent US20150164910A1", "about": "“ANTIVIRAL COMPOUNDS AND METHODS OF USE” (The Regents of the University of Califonia, priority 2012, published 2015)", "key": {"[1]": {"details": "chronic therapy 80 mg/day fluoxetine; cited from earlier work"}, "coxsackievirus B3 (CVB3)": {"test_system": "coxsackievirus B3 (CVB3)", "experiment": "Cell viability assay, prevention of cell death caused by CVB3 infection", "format": "cell-based", "details": "Enterovirus B", "experimental": "Procedure: Enteroviruses rapidly cause cell death, and a cell viability assay was used to examine the cytotoxicity of each compound and to identify the concentration needed to prevent cell death caused by coxsackievirus B3 (CVB3) infection.\nCompounds were diluted two-fold and added to wells of 384 well plate. HeLa-RW cells were then added (cytotoxicity testing), or cells and CVB3 were added to provide a low multiplicity of infection to determine concentration of peak activity or 50% maximal concentration. Selectivity index is defined as the 50% Cytotoxic concentration/50% activity concentration"}, "[2]": {"test_system": "eGFP-expressing recombinant CVB3", "format": "cell-based, coxsackievirus B3", "details": "eGFP-CVB3 m.o.i=1, compound added at time of infection, 6 hr post infection; 1-(% eGFP+ cells with compound/% with DMSO only)"}}, "note": "Where a name gives a salt, the structure may show the parent alone. Read-outs that look alike come from different tables or passages of the source.", "data": [{"smiles": "CNCCC(Oc1ccc(C(F)(F)F)cc1)c1ccccc1", "note": "(centres unmarked) [Compound 72, N-Methyl-3-phenyl-3-[4-(trifluoromethyl)phenoxy]-1-propanamine hydrochloride (1:1), reference compound]", "values": [{"measurement": "Concentrations achieved during chronic therapy", "setting": "[1]", "result": 1000, "unit": "µM"}, {"measurement": "IC50", "setting": "coxsackievirus B3 (CVB3); read-out: 50% activity concentration (IC50)", "result": 2340, "unit": "nM"}, {"measurement": "IC50", "setting": "coxsackievirus B3 (CVB3); read-out: IC50 values estimated", "result": 2340, "unit": "nM"}, {"measurement": "EC (peak activity)", "setting": "coxsackievirus B3 (CVB3); read-out: Peak Activity Conc.", "result": 6.25, "unit": "µM"}, {"measurement": "Inhibition of infected cells", "setting": "[2]", "result": 99.7, "unit": "%"}]}]}
